Assay results as given in article PMC5974125.
No constants are given. Whether binding was seen depends on the method and setting. In cells and extracts the contact can be indirect. Some entries that bind do so weakly or less than the wild type.

The chains behind the UniProt entries cited, without tags or fusion partners.
UniProt Q14457: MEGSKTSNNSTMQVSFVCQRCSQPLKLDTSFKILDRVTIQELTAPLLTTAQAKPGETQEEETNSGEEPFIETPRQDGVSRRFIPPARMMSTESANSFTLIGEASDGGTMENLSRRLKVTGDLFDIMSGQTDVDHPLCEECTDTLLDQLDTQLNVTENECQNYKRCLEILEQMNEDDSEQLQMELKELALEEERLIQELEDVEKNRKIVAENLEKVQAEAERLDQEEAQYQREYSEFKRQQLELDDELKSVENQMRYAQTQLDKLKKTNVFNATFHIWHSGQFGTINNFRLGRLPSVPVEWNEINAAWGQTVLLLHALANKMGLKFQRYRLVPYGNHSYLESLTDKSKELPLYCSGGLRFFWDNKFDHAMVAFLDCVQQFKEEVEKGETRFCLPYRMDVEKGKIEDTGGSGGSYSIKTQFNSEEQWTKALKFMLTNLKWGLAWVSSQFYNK
UniProt P10415: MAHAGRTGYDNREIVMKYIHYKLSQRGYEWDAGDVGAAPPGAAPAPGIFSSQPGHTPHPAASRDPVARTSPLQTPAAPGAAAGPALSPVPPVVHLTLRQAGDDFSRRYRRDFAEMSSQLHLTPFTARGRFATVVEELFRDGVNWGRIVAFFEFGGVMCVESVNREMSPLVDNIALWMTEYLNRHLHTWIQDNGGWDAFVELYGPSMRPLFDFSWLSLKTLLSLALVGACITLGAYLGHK

Experiments:
[1] = molecular target: Beclin-1 (human (endogenous in AGS and SNU-638)) (UniProt Q14457); experiment: co-IP; endogenous proteins in AGS and SNU-638 lysates; cells treated with DMSO (control) or DSGOST (500 μg/mL) for 16 and 24 h; anti-Bcl-2 or anti-Beclin-1 with lysate at 4 °C for 16 h, protein A/G PLUS agarose; 50 mM Tris-HCl pH 7.5, 250 mM NaCl, 5 mM EDTA, 0.5% NP-40; western blotting
[2] = molecular target: Bcl-2 (human (endogenous in AGS and SNU-638)) (UniProt P10415); experiment: as above

Row | binding [1] | binding [2] | Substance
1 | binds |  | Bcl-2 (from UniProt P10415 1-239)
2 |  | binds | Beclin-1 (from UniProt Q14457 1-450)
